Source: PubChem BioAssay AID1259308 (NCATS, 2017)
The deposit covers about 59,000 reagents; shown is a random part of them. About 1,510 of all reagents (2.6%) were called active. 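Calls use total luciferase alone and ignore viability, so some active siRNAs may act by altering cell number.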 Entries without a mark were called inactive. Reagents against one gene are numbered here. Reagent sequences are not shown.

- Screen: 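Knock-downs that increase output of a recombinant reporter protein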 (primary screen)
- Cell system: human HEK293 embryonic kidney cells stably expressing firefly luciferase (HEK-CMV-Luc2-Hygro)
- Knock-down reagent: single siRNA against human genes, 0.8 pmol siRNA per well
- Time to read-out: 72 h
- Detection: 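Reporter luminescence and viable-cell signal on separate replicate plates, given as percent of non-targeting control and median/MAD z-scores, plus per-cell luciferase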
- Scale: total luciferase, z-score and total luciferase, % of control: higher = more reporter protein produced; luciferase per cell, z-score: higher = more reporter output per viable cell; viable cells, % of control: higher = more viable cells
- Rule for the call: 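An siRNA counts as active if its total luciferase robust z-score exceeds 3; genes with two or more such siRNAs out of three were retested with fresh siRNAs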
- Meaning of the calls: active = raised luciferase; inactive = no rise

The opening 5 records, ahead of the listing:
target gene | siRNA no. | total luciferase, z-score | total luciferase, % of control | luciferase per cell, z-score | viable cells, % of control
LRRC47 (GeneID 57470) | 1 | 0.37 | 89.2 | 0.107 | 97
LRRC47 (GeneID 57470) | 2 | -1.42 | 53.7 | -0.575 | 69.8
LRRC47 (GeneID 57470) | 3 | 2.06 | 123 | 1.57 | 90.8
MAGEA5P (GeneID 4104) | 1 | 0.196 | 85.8 | -0.127 | 99.1
MAGEA5P (GeneID 4104) | 2 | 0.514 | 92.1 | 2.19 | 57.8

The list itself, from the start:
target gene | siRNA no. | total luciferase, z-score | total luciferase, % of control | luciferase per cell, z-score | viable cells, % of control
LRRC47 (GeneID 57470) | 1 | 0.37 | 89.2 | 0.107 | 97
LRRC47 (GeneID 57470) | 2 | -1.42 | 53.7 | -0.575 | 69.8
LRRC47 (GeneID 57470) | 3 | 2.06 | 123 | 1.57 | 90.8
MAGEA5P (GeneID 4104) | 1 | 0.196 | 85.8 | -0.127 | 99.1
MAGEA5P (GeneID 4104) | 2 | 0.514 | 92.1 | 2.19 | 57.8
MAGEA5P (GeneID 4104) | 3 | -0.0273 | 81.3 | -0.72 | 110
PCP4 (GeneID 5121) | 1 | 0.373 | 89.3 | 2.43 | 52.6
PCP4 (GeneID 5121) | 2 | 1.77 | 117 | 1.88 | 79.8
PCP4 (GeneID 5121) | 3 | -1.62 | 49.7 | -1.94 | 92.5
ZHX1 (GeneID 11244) | 1 | -0.86 | 64.8 | 0.324 | 66.5
ZHX1 (GeneID 11244) | 2 | -0.243 | 77 | -0.14 | 89.3
ZHX1 (GeneID 11244) | 3 | -1.08 | 60.5 | -1.43 | 98.6
GPR50 (GeneID 9248) | 1 | 0.282 | 87.5 | 0.352 | 89.1
GPR50 (GeneID 9248) | 2 | -1.28 | 56.5 | -1.56 | 95.2
GPR50 (GeneID 9248) | 3 | -0.808 | 65.8 | -1.14 | 99.4
KCTD20 (GeneID 222658) | 1 | 0.253 | 86.9 | 0.532 | 84.4
KCTD20 (GeneID 222658) | 2 | 0.162 | 85.1 | 0.0842 | 93
KCTD20 (GeneID 222658) | 3 | -1.51 | 51.8 | -0.743 | 70.4
CPSF3 (GeneID 51692) | 1 | -2.22 | 37.7 | -3.34 | 102
CPSF3 (GeneID 51692) | 2 | -1.97 | 42.6 | -2.51 | 92.2
CPSF3 (GeneID 51692) | 3 | -1.68 | 48.4 | -2.06 | 93
CCT7 (GeneID 10574) | 1 | 1.01 | 102 | 1.5 | 76.8
CCT7 (GeneID 10574) | 2 | 3.23 (active) | 146 | 2.22 | 91
CCT7 (GeneID 10574) | 3 | 3.57 (active) | 153 | 3.06 | 76.3
NMRK2 (GeneID 27231) | 1 | -0.0299 | 81.3 | -0.508 | 104
NMRK2 (GeneID 27231) | 2 | -0.597 | 70 | 0.369 | 71
NMRK2 (GeneID 27231) | 3 | 0.094 | 83.8 | 0.059 | 92.2
RIT2 (GeneID 6014) | 1 | 0.0988 | 83.9 | -0.446 | 105
RIT2 (GeneID 6014) | 2 | -0.532 | 71.3 | -0.743 | 96.9
RIT2 (GeneID 6014) | 3 | -0.87 | 64.6 | 0.366 | 65.5
RPP38-DT (GeneID 221060) | 1 | 1.58 | 113 | 1.05 | 96
RPP38-DT (GeneID 221060) | 2 | -0.225 | 77.4 | 0.804 | 70
RPP38-DT (GeneID 221060) | 3 | 0.779 | 97.4 | 1.08 | 81.8
STIM1 (GeneID 6786) | 1 | 0.628 | 94.4 | 0.778 | 85.9
STIM1 (GeneID 6786) | 2 | -0.281 | 76.3 | -0.647 | 101
STIM1 (GeneID 6786) | 3 | 0.446 | 90.8 | -0.153 | 106
ACTR3C (GeneID 653857) | 1 | 1.22 | 106 | 1.55 | 78.8
ACTR3C (GeneID 653857) | 2 | 1.65 | 115 | 1.36 | 89.5
ACTR3C (GeneID 653857) | 3 | -0.802 | 65.9 | -0.537 | 84.9
NEFM (GeneID 4741) | 1 | -0.0954 | 80 | -0.752 | 109
NEFM (GeneID 4741) | 2 | 1.29 | 107 | 1.64 | 78.1
NEFM (GeneID 4741) | 3 | -1.66 | 48.8 | -1.21 | 74.9
CYP8B1 (GeneID 1582) | 1 | 0.614 | 94.1 | 0.695 | 87.6
CYP8B1 (GeneID 1582) | 2 | 0.607 | 94 | -0.0898 | 108
CYP8B1 (GeneID 1582) | 3 | 0.287 | 87.6 | 1.66 | 63.3
CD99P1 (GeneID 401577) | 1 | -1.06 | 60.8 | -1.1 | 90.9
CD99P1 (GeneID 401577) | 2 | 2.79 | 137 | 4.07 | 52.7
CD99P1 (GeneID 401577) | 3 | 3.09 (active) | 143 | 2.09 | 92.5
ING5 (GeneID 84289) | 1 | -1.6 | 50 | -1.64 | 86.2
ING5 (GeneID 84289) | 2 | -1.77 | 46.7 | -1.83 | 84.5
ING5 (GeneID 84289) | 3 | 0.964 | 101 | 0.184 | 108
GPR21 (GeneID 2844) | 1 | 1.7 | 116 | 2.42 | 68.4
GPR21 (GeneID 2844) | 2 | 0.154 | 84.9 | -0.435 | 106
GPR21 (GeneID 2844) | 3 | 0.359 | 89 | 0.138 | 95.9
EP300 (GeneID 2033) | 1 | 0.276 | 87.4 | 0.783 | 79.4
EP300 (GeneID 2033) | 2 | -0.479 | 72.4 | -0.698 | 97.2
EP300 (GeneID 2033) | 3 | 0.101 | 83.9 | -0.347 | 103
ESM1 (GeneID 11082) | 1 | 1.18 | 105 | 0.85 | 94.2
ESM1 (GeneID 11082) | 2 | -2.12 | 39.6 | -1.99 | 74.7
ESM1 (GeneID 11082) | 3 | -1.5 | 52 | -1.51 | 86.5
EPHA8 (GeneID 2046) | 1 | 0.109 | 84.1 | -0.212 | 99.3
EPHA8 (GeneID 2046) | 2 | 0.00463 | 82 | 0.619 | 77.8
EPHA8 (GeneID 2046) | 3 | -0.549 | 71 | -1.12 | 107
CALD1 (GeneID 800) | 1 | 0.594 | 93.7 | 0.742 | 86.1
CALD1 (GeneID 800) | 2 | 0.243 | 86.7 | 1.62 | 63.3
CALD1 (GeneID 800) | 3 | 1.33 | 108 | 1.43 | 83
AHCY (GeneID 191) | 1 | -0.165 | 78.6 | -0.277 | 94.5
AHCY (GeneID 191) | 2 | 2.7 | 136 | 2.38 | 81
AHCY (GeneID 191) | 3 | 1.4 | 110 | 1.02 | 93.9
TSPAN32 (GeneID 10077) | 1 | 0.293 | 87.7 | 0.435 | 87.4
TSPAN32 (GeneID 10077) | 2 | -0.54 | 71.1 | -0.339 | 86.9
TSPAN32 (GeneID 10077) | 3 | -0.678 | 68.4 | -0.627 | 90.2
CNTN4 (GeneID 152330) | 1 | 0.31 | 88 | 0.0362 | 97.5
CNTN4 (GeneID 152330) | 2 | -1.04 | 61.3 | -1.2 | 93.9
CNTN4 (GeneID 152330) | 3 | -0.507 | 71.8 | -0.174 | 84
